According to publication doi:10.1101/2021.09.30.462556:
Results are given in words; binding and its absence hold for the method and conditions named. In cells and extracts the contact can be indirect. Binding can be weak; no strength is given. For part of these data: Tags and fused reporters may be left off the sequences shown.

How the values were obtained:
TES-1::GFP (C. elegans) = TES-1::GFP (C. elegans) (UniProt Q17525); experiment: co-IP
GST-TES-1 (C. elegans) = experiment: pull-down

Binder | binding (TES-1::GFP (C. elegans)) | binding (GST-TES-1 (C. elegans))
ZYX-1/zyxin, endogenous (protein, UniProt Q9U3F4 1-603) MGPPPPPPPPPLLPSGEILPSRKWKTEDAPRRNNHPAPAPPKPSRPTVDASALQHAAARLRKTGYNEPVRGDVENLSDGRLDRPHQQLPDGDRTYRANLQQLAQPKTRAEIPSPPTYSNQPRPLGDFHRDPNALSQFQQSREALLSSTSPTSNYSPINKFSSSTLTQYANKSPSPPSFGNSNSEATYVSPYSSKHSYPTNFRSYHKDDDYFNNTATTATTTTSSNSLNENNNSNKYGNKETVLQWSEPYDPSKIRRSQSPIRNAREMIHEYSTTNYVTEVQQPPPPPPDLYQRMTQARTFLQNSLAKQLRDEGLTESQKAANRNQTGALSASSSIPFDASQIVKNSYNGDEVDHLVHQMRTKLNQPADTSPSIVQYPRRQAPDSSRANYSATTSTSFSSSTTRKIMNINICVGCGKEITGDQPGCNAMNQIFHVDCFKCGQCSKTLAGASFYNIDDKPTCEGCYQNSLEKCTACNRAISDKLLRACGGVYHVNCFVCFSCKKSLDGIPFTLDKDNNVHCVPCFHDKFAPRCALCSKPIVPQDGEKESVRVVAMDKSFHVDCYKCEDCGMQLSSKLEGQGCYPIDNHLLCKTCNGNRLRVVSST | binds | –
ZYX-1-MBP (protein, UniProt Q9U3F4 1-603) MGPPPPPPPPPLLPSGEILPSRKWKTEDAPRRNNHPAPAPPKPSRPTVDASALQHAAARLRKTGYNEPVRGDVENLSDGRLDRPHQQLPDGDRTYRANLQQLAQPKTRAEIPSPPTYSNQPRPLGDFHRDPNALSQFQQSREALLSSTSPTSNYSPINKFSSSTLTQYANKSPSPPSFGNSNSEATYVSPYSSKHSYPTNFRSYHKDDDYFNNTATTATTTTSSNSLNENNNSNKYGNKETVLQWSEPYDPSKIRRSQSPIRNAREMIHEYSTTNYVTEVQQPPPPPPDLYQRMTQARTFLQNSLAKQLRDEGLTESQKAANRNQTGALSASSSIPFDASQIVKNSYNGDEVDHLVHQMRTKLNQPADTSPSIVQYPRRQAPDSSRANYSATTSTSFSSSTTRKIMNINICVGCGKEITGDQPGCNAMNQIFHVDCFKCGQCSKTLAGASFYNIDDKPTCEGCYQNSLEKCTACNRAISDKLLRACGGVYHVNCFVCFSCKKSLDGIPFTLDKDNNVHCVPCFHDKFAPRCALCSKPIVPQDGEKESVRVVAMDKSFHVDCYKCEDCGMQLSSKLEGQGCYPIDNHLLCKTCNGNRLRVVSST | – | binds weakly
HMP-1/α-catenin, endogenous (protein, UniProt P90947 1-927) MPANGNSHAYFNIDEVRSKNVLKQITQLINEVTNITETFPLKPGQTTEGLVATLDAAVANFLQTGSFAISKCPIANSDPRAIDLLHEALGAVQDTGQVMIQTGRDFVRDSTSTNKRAIATNSGRNLLTAVAKFLILADSIDVKVIVDKVDEVRETAHQMIEADTKIKVDDLYNLLISQIEELDITVRRRAIDLVKPNQRDDLLAARSALRQTAPLLYTSTRTFVRHPEHEEARRNRDYTADEMHSALNALESVLNGQQPKVTFSEYGRIGDLINEIDTFQNRIEIDPAHYRRGTDRPDLEGHCERIVSGSASIADAESTRENRKQKIVAECNNLRQALQELLTEYEKSTGRRDDNDDIPLGIAEVHKRTKDLRRHLRRAIVDHISDAFLDTRTPLILLIEAAKEGHEENTRYRSKMFQEHANEIVSVARLSCQLSSDVESVSVIQHTAAQLEKLAPQVAQAAILLCHQPTSKTAQENMETYKNAWFDKVRLLTTALDNITTLDDFLAVSEAHIVEDCERGIKGITANASTPDENAANCETVDCAAGSIRGRALRVCDVVDAEMDFLQNSEYTETVKQAVRILKTQRVDQFAERASALANRQEAHGLTWDPKTKEEEMNEFINACTLVHDAVKDIRHALLMNRSMNDVDSDVEYEADGVGAANADANRTISEQENQQNLMRRLPEEEKKKIQAQIDIFKVTQTRFEREVAKWDETGNDIISLANNMCKIMMSMTEFTRGCGPLKTTMDVIRAAQEISLNGSKLNALARQIGEESADSQTKKDLLAYLSQITLYCQQLNICSKVKADVTQVGNELVVSALDSAMSLIQTARNLLTAVVQTVKAAYIASTKFRRPNANSVRVEWRMAPPKKQPLIRPQKNNAIIRRASERRPLQPAKVLAEFTRNEIETGRDSDDEELDRRHQQRINGRL | no binding | –
